Some of the results follow.
Experiments:
Test in all cases: log2 fold change, soluble protein after heating vs DMSO (PISA); higher = thermal stabilisation; K562 cells, 10 uM, 30 min; active = over 0.2 and 3.5 SD of the protein, either way, in both replicates (recomputed)
saracatinib = compound: CN1CCN(CCOc2cc(OC3CCOCC3)c3c(Nc4c(Cl)ccc5c4OCO5)ncnc3c2)CC1 [saracatinib]
Summary of the method: (§1)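 For each measurement, 10 μM compound was applied for 30 min to K562 cells at 2×10^6 cells/mL. Aliquots were heated for 3 min across 48°C-58°C, pooled, and extracted in PBS with 0.5% NP-40 at 4°C; the supernatant after 21,000xg for 90 min was soluble protein. This was quantified by TMTpro 16plex LC-MS/MS with channel sums equalised, and thermal stability was reported relative to control samples from duplicates, on a log2 fold-change scale.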

Protein sequences, listed by entry. Tags and fused reporters are not part of them. Lines headed by an entry give the natural chain unless they say otherwise; changes in a name come on top.
UniProt O60502: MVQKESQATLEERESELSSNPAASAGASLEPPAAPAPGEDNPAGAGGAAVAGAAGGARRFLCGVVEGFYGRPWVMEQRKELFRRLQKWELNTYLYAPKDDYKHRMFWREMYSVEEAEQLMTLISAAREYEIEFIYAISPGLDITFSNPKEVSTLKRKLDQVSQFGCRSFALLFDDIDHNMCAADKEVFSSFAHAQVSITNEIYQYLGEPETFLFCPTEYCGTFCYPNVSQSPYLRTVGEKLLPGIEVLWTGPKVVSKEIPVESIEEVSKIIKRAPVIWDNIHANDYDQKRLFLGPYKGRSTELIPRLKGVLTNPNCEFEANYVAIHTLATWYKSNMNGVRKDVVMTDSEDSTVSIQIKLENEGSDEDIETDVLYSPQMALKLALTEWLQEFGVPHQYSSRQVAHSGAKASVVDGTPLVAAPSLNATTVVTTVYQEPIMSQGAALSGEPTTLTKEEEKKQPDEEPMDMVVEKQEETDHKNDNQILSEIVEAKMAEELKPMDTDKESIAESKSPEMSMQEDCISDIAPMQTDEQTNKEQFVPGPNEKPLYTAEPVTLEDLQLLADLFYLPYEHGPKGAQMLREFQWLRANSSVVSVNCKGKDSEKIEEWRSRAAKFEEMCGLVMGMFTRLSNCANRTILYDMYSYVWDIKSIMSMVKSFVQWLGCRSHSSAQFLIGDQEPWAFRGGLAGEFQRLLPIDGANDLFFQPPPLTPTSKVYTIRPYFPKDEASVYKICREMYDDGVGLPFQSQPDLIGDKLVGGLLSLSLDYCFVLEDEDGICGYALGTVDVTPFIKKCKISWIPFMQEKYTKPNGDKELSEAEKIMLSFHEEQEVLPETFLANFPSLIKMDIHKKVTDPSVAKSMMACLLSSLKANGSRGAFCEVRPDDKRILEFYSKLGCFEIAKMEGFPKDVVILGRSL
UniProt Q7Z417: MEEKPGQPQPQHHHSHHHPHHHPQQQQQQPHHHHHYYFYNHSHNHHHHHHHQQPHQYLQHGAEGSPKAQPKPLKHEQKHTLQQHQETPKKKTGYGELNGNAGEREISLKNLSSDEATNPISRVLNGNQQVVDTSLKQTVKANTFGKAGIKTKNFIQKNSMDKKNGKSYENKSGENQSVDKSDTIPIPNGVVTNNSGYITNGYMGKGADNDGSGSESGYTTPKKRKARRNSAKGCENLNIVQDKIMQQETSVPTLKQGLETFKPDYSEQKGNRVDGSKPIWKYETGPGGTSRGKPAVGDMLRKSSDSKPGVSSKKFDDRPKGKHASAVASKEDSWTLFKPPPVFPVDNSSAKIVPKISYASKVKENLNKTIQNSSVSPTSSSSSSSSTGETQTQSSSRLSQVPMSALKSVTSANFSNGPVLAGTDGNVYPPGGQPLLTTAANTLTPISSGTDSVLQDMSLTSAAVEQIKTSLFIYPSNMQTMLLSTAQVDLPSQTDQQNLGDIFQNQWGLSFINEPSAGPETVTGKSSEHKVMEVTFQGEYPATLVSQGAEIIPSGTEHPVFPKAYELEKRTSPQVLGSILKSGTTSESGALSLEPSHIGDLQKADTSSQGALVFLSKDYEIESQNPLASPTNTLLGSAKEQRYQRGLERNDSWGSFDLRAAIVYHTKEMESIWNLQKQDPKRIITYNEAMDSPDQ
UniProt Q8TB37: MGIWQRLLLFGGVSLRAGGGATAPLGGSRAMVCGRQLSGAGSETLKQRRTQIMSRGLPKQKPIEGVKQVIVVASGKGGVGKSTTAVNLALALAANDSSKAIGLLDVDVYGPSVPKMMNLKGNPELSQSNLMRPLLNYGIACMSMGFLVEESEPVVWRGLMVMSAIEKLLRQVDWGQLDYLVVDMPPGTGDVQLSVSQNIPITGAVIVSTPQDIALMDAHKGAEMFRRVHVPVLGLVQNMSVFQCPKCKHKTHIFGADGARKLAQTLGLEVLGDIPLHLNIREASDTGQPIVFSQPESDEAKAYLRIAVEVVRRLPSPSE
UniProt P50583: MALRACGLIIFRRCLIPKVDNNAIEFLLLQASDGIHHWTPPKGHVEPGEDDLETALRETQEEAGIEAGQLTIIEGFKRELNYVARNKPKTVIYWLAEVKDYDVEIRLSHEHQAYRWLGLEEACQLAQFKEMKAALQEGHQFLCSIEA
UniProt Q9UKX7: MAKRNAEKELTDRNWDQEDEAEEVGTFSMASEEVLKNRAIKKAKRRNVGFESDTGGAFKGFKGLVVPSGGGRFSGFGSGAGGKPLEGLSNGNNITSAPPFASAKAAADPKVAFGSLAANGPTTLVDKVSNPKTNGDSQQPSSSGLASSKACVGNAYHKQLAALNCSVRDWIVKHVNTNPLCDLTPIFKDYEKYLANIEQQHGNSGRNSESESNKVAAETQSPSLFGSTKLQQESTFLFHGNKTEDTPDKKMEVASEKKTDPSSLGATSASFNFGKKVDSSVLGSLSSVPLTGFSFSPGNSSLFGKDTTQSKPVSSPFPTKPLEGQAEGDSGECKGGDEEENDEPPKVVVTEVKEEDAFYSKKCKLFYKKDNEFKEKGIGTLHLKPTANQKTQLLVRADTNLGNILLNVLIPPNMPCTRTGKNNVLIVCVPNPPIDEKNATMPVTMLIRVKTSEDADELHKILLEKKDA
UniProt Q99571: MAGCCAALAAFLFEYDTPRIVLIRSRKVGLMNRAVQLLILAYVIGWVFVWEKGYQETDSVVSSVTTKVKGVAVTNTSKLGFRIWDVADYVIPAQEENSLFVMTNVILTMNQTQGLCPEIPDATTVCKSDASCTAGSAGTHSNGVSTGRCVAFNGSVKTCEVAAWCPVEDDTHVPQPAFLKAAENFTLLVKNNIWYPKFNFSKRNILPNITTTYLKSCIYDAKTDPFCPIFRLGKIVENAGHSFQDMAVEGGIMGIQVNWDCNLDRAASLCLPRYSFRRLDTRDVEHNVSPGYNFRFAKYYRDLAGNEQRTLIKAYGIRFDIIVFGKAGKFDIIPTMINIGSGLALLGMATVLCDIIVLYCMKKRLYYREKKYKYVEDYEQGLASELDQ
UniProt Q8N6M0: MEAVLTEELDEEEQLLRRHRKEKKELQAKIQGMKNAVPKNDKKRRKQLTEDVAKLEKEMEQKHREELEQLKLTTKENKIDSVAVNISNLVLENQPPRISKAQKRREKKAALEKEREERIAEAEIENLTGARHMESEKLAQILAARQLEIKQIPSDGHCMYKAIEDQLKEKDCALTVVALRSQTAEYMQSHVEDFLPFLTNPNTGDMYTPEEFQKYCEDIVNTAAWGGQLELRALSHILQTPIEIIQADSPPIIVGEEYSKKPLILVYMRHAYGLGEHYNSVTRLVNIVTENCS
UniProt Q9BRJ7: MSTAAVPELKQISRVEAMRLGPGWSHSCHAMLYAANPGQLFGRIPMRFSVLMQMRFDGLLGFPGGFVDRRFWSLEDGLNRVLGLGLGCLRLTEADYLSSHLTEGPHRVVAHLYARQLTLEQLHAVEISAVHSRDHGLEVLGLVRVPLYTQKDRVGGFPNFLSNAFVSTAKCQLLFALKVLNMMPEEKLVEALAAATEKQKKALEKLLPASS
UniProt Q969T7: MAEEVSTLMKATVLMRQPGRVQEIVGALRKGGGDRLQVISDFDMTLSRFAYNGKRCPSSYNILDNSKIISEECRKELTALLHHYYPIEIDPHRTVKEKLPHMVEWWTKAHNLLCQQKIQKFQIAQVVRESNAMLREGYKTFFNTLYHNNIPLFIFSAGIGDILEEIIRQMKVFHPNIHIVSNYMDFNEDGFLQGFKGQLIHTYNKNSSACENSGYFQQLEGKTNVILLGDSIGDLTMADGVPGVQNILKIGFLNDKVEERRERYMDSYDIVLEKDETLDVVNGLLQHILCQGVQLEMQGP
UniProt Q96E22: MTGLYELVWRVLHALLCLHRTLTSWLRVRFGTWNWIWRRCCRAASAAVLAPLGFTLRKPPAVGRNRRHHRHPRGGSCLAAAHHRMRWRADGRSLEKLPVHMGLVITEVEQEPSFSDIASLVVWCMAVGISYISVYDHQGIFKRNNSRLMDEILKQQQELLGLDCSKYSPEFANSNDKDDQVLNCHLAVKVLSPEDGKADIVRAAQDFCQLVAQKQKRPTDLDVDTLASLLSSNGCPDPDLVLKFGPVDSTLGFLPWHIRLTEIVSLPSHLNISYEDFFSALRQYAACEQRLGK
UniProt Q9NWU1, whole entry, looked up: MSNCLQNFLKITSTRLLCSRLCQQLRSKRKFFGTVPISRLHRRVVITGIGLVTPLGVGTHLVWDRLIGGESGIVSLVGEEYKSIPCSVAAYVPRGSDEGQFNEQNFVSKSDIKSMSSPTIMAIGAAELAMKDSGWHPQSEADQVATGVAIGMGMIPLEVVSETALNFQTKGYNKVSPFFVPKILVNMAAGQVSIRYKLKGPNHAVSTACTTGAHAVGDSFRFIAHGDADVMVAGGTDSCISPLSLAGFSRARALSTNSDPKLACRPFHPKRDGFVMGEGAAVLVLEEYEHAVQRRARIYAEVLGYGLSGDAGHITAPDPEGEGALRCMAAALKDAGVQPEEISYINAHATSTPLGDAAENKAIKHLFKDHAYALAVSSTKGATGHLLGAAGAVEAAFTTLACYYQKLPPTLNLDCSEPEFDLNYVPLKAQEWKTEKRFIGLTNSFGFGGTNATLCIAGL
UniProt Q9NZJ9: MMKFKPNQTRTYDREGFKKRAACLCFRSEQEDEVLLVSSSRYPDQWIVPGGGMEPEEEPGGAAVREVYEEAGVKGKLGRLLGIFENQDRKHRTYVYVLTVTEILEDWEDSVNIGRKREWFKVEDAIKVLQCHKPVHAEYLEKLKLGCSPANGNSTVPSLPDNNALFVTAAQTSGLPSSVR
UniProt Q9NZT2: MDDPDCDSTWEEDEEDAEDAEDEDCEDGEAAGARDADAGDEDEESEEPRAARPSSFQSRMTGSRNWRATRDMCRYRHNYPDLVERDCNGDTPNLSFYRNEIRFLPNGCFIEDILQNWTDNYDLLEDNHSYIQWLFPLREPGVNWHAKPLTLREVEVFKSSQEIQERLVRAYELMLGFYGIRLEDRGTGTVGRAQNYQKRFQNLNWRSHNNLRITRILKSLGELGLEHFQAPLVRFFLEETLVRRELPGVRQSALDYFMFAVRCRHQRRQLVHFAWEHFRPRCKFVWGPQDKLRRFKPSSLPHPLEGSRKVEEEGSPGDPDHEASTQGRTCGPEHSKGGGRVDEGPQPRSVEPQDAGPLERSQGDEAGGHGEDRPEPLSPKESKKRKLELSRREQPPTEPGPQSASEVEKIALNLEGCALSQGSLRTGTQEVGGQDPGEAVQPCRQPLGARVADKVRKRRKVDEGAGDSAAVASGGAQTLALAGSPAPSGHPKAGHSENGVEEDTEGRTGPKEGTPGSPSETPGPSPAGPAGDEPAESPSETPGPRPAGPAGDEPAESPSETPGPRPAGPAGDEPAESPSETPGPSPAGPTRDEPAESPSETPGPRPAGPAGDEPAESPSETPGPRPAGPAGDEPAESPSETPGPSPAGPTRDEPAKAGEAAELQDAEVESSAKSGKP
UniProt P13674: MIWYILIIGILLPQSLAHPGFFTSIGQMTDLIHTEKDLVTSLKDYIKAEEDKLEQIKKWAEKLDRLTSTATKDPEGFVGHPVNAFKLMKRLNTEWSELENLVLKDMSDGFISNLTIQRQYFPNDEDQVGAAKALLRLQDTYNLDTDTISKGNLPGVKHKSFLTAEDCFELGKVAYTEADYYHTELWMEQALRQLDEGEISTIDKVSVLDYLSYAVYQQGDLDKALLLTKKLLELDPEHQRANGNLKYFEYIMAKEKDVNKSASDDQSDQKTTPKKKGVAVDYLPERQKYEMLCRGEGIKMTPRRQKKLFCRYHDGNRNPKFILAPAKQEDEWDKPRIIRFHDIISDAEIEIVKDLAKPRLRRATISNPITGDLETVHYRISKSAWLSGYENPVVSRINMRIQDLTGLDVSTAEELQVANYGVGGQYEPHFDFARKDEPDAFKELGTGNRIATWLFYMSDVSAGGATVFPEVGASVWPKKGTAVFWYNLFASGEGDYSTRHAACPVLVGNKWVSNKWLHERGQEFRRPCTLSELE

sotrastaurin = compound: CN1CCN(c2nc(C3=C(c4c[nH]c5ccccc45)C(=O)NC3=O)c3ccccc3n2)CC1 [sotrastaurin]
Summary of the method: as §1

alvocidib = compound: CN1CC[C@H](c2c(O)cc(O)c3c(=O)cc(-c4ccccc4Cl)oc23)[C@H](O)C1 [alvocidib]
Summary of the method: as §1

Tubastatin A = compound: CN1CCc2c(c3ccccc3n2Cc2ccc(C(=O)NO)cc2)C1 [Tubastatin A]
Summary of the method: as §1

[1] = compound: CNC(=O)C1=CC=CC=C1NC2=NC(=NC=C2Cl)NC3=C(C=C(C=C3)N4CCOCC4)OC
Summary of the method: as §1

defactinib = compound: CNC(=O)c1ccc(Nc2ncc(C(F)(F)F)c(NCc3nccnc3N(C)S(C)(=O)=O)n2)cc1 [defactinib]
Summary of the method: as §1

rucaparib = compound: CNCc1ccc(-c2[nH]c3cc(F)cc4c3c2CCNC4=O)cc1 [rucaparib]
Summary of the method: as §1

[2] = compound: CNc1nc(-c2ccc3c(N)n[nH]c3c2)cc(N2C[C@@H](C(=O)NC3CCCCC3)CC[C@H]2C)n1
Summary of the method: as §1

encorafenib = compound: COC(=O)N[C@@H](C)CNc1nccc(-c2cn(C(C)C)nc2-c2cc(Cl)cc(NS(C)(=O)=O)c2F)n1 [encorafenib]
Summary of the method: as §1

[3] = compound: COC(=O)[C@H](CCSC)NC(=O)C1=C(C=C(C=C1)NC[C@H](CS)N)C2=CC=CC=C2
Summary of the method: as §1

[4] = compound: COC1=CC=C(C=C1)CN2C=CC3=C2C=C(C=C3)C(=O)NO
Summary of the method: as §1

filanesib = compound: CON(C)C(=O)N1N=C(c2cc(F)ccc2F)S[C@@]1(CCCN)c1ccccc1 [filanesib]
Summary of the method: as §1

zotarolimus = compound: CO[C@H]1C[C@@H]2CC[C@@H](C)[C@@](O)(O2)C(=O)C(=O)N2CCCC[C@H]2C(=O)O[C@H]([C@H](C)C[C@@H]2CC[C@H](n3cnnn3)[C@H](OC)C2)CC(=O)[C@H](C)/C=C(\C)[C@@H](O)[C@@H](OC)C(=O)[C@H](C)C[C@H](C)/C=C/C=C/C=C/1C [zotarolimus]
Summary of the method: as §1

idasanutlin = compound: COc1cc(C(=O)O)ccc1NC(=O)[C@@H]1N[C@@H](CC(C)(C)C)[C@](C#N)(c2ccc(Cl)cc2F)[C@H]1c1cccc(Cl)c1F [idasanutlin]
Summary of the method: as §1

alisertib = compound: COc1cc(Nc2ncc3c(n2)-c2ccc(Cl)cc2C(c2c(F)cccc2OC)=NC3)ccc1C(=O)O [alisertib]
Summary of the method: as §1

[5] = compound: COc1cc2nc(-c3cc(F)ccc3O)nc(N[C@@H]3CNC[C@H]3C(C)(C)O)c2cc1OC
Summary of the method: as §1

gefitinib = compound: COc1cc2ncnc(Nc3ccc(F)c(Cl)c3)c2cc1OCCCN1CCOCC1 [gefitinib]
Summary of the method: as §1

[6] = compound: COc1cccc2cc(-c3nc([C@H]4CC[C@H](C(=O)O)CC4)n4ncnc(N)c34)[nH]c12
Summary of the method: as §1

lapatinib = compound: CS(=O)(=O)CCNCc1ccc(-c2ccc3ncnc(Nc4ccc(OCc5cccc(F)c5)c(Cl)c4)c3c2)o1 [lapatinib]
Summary of the method: as §1

pictilisib = compound: CS(=O)(=O)N1CCN(Cc2cc3nc(-c4cccc5[nH]ncc45)nc(N4CCOCC4)c3s2)CC1 [pictilisib]
Summary of the method: as §1

Measured: log2 fold change

OGA (UniProt O60502)
inactive: saracatinib 0.014 | sotrastaurin 0.011 | alvocidib -0.121 | Tubastatin A -0.044 | [1] 0.011 | defactinib -0.009 | rucaparib 0.003 | [2] -0.012 | encorafenib -0.028 | [3] 0.037 | [4] 0.01 | filanesib 0.046 | zotarolimus 0.004 | idasanutlin -0.027 | alisertib -0.041 | [5] 0.06 | gefitinib 0.058 | [6] 0.017 | lapatinib -0.042 | pictilisib 0.061

NUFIP2 (UniProt Q7Z417)
inactive: saracatinib 0.05 | sotrastaurin 0.01 | alvocidib 0.105 | Tubastatin A -0.008 | [1] 0.002 | defactinib 0.075 | rucaparib 0.154 | [2] -0.026 | encorafenib 0.009 | [3] 0 | [4] 0.018 | filanesib 0.111 | zotarolimus -0.073 | idasanutlin 0.128 | alisertib -0.094 | [5] -0.049 | gefitinib -0.012 | [6] -0.027 | lapatinib 0.03 | pictilisib -0.085

NUBPL (UniProt Q8TB37)
inactive: saracatinib 0.017 | sotrastaurin -0.007 | alvocidib 0.015 | Tubastatin A -0.042 | [1] 0.013 | defactinib 0.024 | rucaparib 0.021 | [2] 0.026 | encorafenib 0 | [3] 0.048 | [4] 0.051 | filanesib -0.095 | zotarolimus 0.062 | idasanutlin 0.025 | alisertib -0.068 | [5] -0.142 | gefitinib 0.076 | [6] 0.044 | lapatinib 0.11 | pictilisib -0.078

NUDT2 (UniProt P50583)
inactive: saracatinib 0.003 | sotrastaurin -0.041 | alvocidib 0 | Tubastatin A -0.025 | [1] -0.042 | defactinib -0.009 | [2] 0 | [3] 0.123 | [4] 0.052 | filanesib -0.09 | zotarolimus 0.038 | idasanutlin -0.106 | alisertib 0.012 | [5] 0.171 | gefitinib 0.062 | [6] -0.019 | lapatinib -0.037

NUP205 (UniProt Q92621)
inactive: saracatinib -0.003 | sotrastaurin -0.057 | Tubastatin A 0.023 | [1] -0.024 | defactinib -0.132 | rucaparib -0.065 | [2] -0.012 | encorafenib 0.096 | [3] -0.038 | [4] 0.015 | filanesib 0.01 | zotarolimus 0.009 | idasanutlin -0.08 | alisertib -0.014 | [5] 0.058 | gefitinib -0.011 | [6] -0.008 | lapatinib -0.03 | pictilisib -0.01

NUP50 (UniProt Q9UKX7)
inactive: saracatinib 0.053 | sotrastaurin -0.015 | alvocidib 0.002 | Tubastatin A -0.029 | [1] -0.016 | defactinib -0.016 | rucaparib 0.015 | [2] 0.016 | encorafenib -0.026 | [3] 0.009 | [4] -0.011 | filanesib -0.046 | zotarolimus 0.016 | idasanutlin 0.014 | alisertib 0.017 | [5] -0.047 | gefitinib 0.016 | [6] 0.067 | lapatinib 0 | pictilisib -0.03

P2RX4 isoform 2 (UniProt Q99571)
inactive: saracatinib -0.046 | sotrastaurin -0.076 | alvocidib -0.032 | Tubastatin A 0.03 | [1] -0.006 | defactinib 0.013 | [2] 0.034 | [3] 0.019 | [4] 0.092 | filanesib 0.066 | zotarolimus -0.044 | idasanutlin -0.087 | alisertib 0.038 | [5] -0.081 | gefitinib -0.095 | [6] 0.102 | lapatinib 0.091

NUDT5 (UniProt C9JYY9)
inactive: saracatinib -0.103 | sotrastaurin -0.12 | alvocidib 0.173 | Tubastatin A 0.161 | [1] -0.386 | defactinib 0.077 | [2] -0.001 | [3] 0.137 | [4] -0.224 | filanesib 0.033 | zotarolimus -0.004 | idasanutlin 0.079 | pictilisib 0.31

OTUD6B (UniProt Q8N6M0)
inactive: saracatinib -0.009 | sotrastaurin -0.035 | Tubastatin A -0.007 | [1] -0.008 | defactinib -0.138 | rucaparib 0.019 | [2] 0.001 | encorafenib 0.122 | [3] -0.055 | [4] 0.016 | filanesib -0.025 | zotarolimus 0.1 | idasanutlin -0.012 | alisertib 0.005 | [5] 0.005 | gefitinib -0.017 | [6] -0.013 | lapatinib -0.028 | pictilisib 0.017

NUDT16L1 (UniProt Q9BRJ7)
inactive: saracatinib 0.048 | sotrastaurin 0.052 | alvocidib -0.008 | Tubastatin A -0.062 | [1] -0.017 | defactinib 0.049 | rucaparib 0.007 | [2] 0.092 | encorafenib 0.004 | [3] -0.021 | [4] -0.03 | filanesib 0.019 | zotarolimus -0.017 | idasanutlin -0.089 | alisertib -0.087 | [5] 0.061 | gefitinib -0.009 | [6] -0.003 | lapatinib -0.002 | pictilisib 0.026

NUP160 (UniProt Q12769)
inactive: saracatinib 0.155 | sotrastaurin -0.141 | Tubastatin A 0 | [1] 0.004 | defactinib -0.11 | rucaparib 0.019 | [2] -0.018 | encorafenib 0.038 | [3] 0.003 | [4] -0.043 | filanesib -0.003 | zotarolimus 0.017 | idasanutlin 0.004 | alisertib -0.076 | [5] -0.068 | gefitinib 0.033 | [6] 0.037 | lapatinib 0.057 | pictilisib -0.021

NT5C3B (UniProt Q969T7)
inactive: saracatinib 0.019 | sotrastaurin -0.12 | alvocidib -0.017 | Tubastatin A 0.054 | [1] 0.087 | defactinib 0.045 | [2] -0.018 | [3] 0.069 | [4] -0.024 | filanesib -0.245 | zotarolimus -0.006 | idasanutlin 0.06 | alisertib -0.109 | [5] 0.198 | gefitinib 0.061 | [6] 0.035 | lapatinib -0.031 | pictilisib 0.102

NUS1 (UniProt Q96E22)
inactive: saracatinib 0.042 | sotrastaurin 0.049 | alvocidib -0.004 | Tubastatin A -0.066 | [1] 0.047 | defactinib 0.027 | rucaparib -0.06 | [2] -0.023 | encorafenib 0.024 | [3] 0.001 | [4] 0.119 | filanesib 0.005 | zotarolimus -0.02 | idasanutlin -0.113 | alisertib 0.008 | [5] 0.057 | gefitinib 0.023 | [6] 0.016 | lapatinib -0.06 | pictilisib 0.03

OXSM (UniProt Q9NWU1)
inactive: saracatinib 0.095 | sotrastaurin 0.067 | Tubastatin A -0.01 | [1] 0.038 | defactinib -0.059 | rucaparib -0.018 | [2] -0.033 | encorafenib -0.007 | [3] -0.019 | [4] 0.033 | filanesib -0.014 | zotarolimus -0.005 | idasanutlin 0.039 | alisertib -0.131 | [5] -0.041 | gefitinib -0.001 | [6] 0.025 | lapatinib 0.007 | pictilisib 0.057

NUDT4 (UniProt Q9NZJ9)
inactive: saracatinib 0.005 | sotrastaurin -0.046 | alvocidib -0.076 | Tubastatin A -0.008 | [1] 0.039 | defactinib -0.084 | rucaparib 0.008 | [2] -0.031 | encorafenib 0.011 | [3] -0.059 | [4] -0.076 | filanesib -0.012 | zotarolimus 0.033 | idasanutlin -0.02 | alisertib -0.055 | [5] 0.011 | gefitinib 0.03 | [6] -0.012 | lapatinib -0.015 | pictilisib -0.002

Quoted from the results shown (2 entries):
NT5C3B (UniProt Q969T7)
inactive: saracatinib 0.019 | sotrastaurin -0.12 | alvocidib -0.017 | Tubastatin A 0.054 | [1] 0.087 | defactinib 0.045 | [2] -0.018 | [3] 0.069 | [4] -0.024 | filanesib -0.245 | zotarolimus -0.006 | idasanutlin 0.06 | alisertib -0.109 | [5] 0.198 | gefitinib 0.061 | [6] 0.035 | lapatinib -0.031 | pictilisib 0.102

NUS1 (UniProt Q96E22)
inactive: saracatinib 0.042 | sotrastaurin 0.049 | alvocidib -0.004 | Tubastatin A -0.066 | [1] 0.047 | defactinib 0.027 | rucaparib -0.06 | [2] -0.023 | encorafenib 0.024 | [3] 0.001 | [4] 0.119 | filanesib 0.005 | zotarolimus -0.02 | idasanutlin -0.113 | alisertib 0.008 | [5] 0.057 | gefitinib 0.023 | [6] 0.016 | lapatinib -0.06 | pictilisib 0.03

Additional results

OGFR (UniProt Q9NZT2)
inactive: saracatinib -0.044 | sotrastaurin -0.146 | Tubastatin A 0.089 | [1] -0.028 | defactinib -0.094 | rucaparib 0.132 | [2] 0.009 | encorafenib 0.031 | [3] -0.154 | [4] -0.005 | filanesib 0.048 | zotarolimus 0.137 | idasanutlin -0.042 | alisertib -0.157 | [5] 0.023 | gefitinib -0.015 | [6] -0.152 | lapatinib 0 | pictilisib 0.019

P4HA1 isoform 2 (UniProt P13674)
inactive: saracatinib -0.133 | sotrastaurin 0.039 | alvocidib 0.069 | Tubastatin A 0.004 | defactinib 0.027 | rucaparib 0.043 | [2] 0.095 | encorafenib 0.019 | [3] -0.143 | [4] -0.198 | filanesib 0.187 | zotarolimus 0 | idasanutlin 0.115 | alisertib -0.155 | [5] 0.059 | gefitinib -0.004 | [6] -0.047 | lapatinib 0.045 | pictilisib 0.002
